Experimental data as given in the supplement of paper PMC12819154, “High-throughput peptide-centric local stability assay extends protein–ligand identification to membrane proteins, tissues and bacteria” (Nature Structural & Molecular Biology, 2025).
This is one part of the list. Most values lie at the level of the controls, where differences are scatter.

The chains behind the UniProt entries cited, without tags or fusion partners. Where a name states a change or a piece, a line headed by the entry shows the natural chain unless it says otherwise.
UniProt P06753, whole entry: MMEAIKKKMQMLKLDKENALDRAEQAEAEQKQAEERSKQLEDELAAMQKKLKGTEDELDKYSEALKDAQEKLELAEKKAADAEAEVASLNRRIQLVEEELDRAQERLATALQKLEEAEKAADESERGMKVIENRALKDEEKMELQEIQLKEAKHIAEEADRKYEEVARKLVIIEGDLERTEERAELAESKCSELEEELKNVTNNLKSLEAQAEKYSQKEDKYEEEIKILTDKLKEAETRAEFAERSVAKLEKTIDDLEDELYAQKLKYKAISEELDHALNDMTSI
UniProt P06401: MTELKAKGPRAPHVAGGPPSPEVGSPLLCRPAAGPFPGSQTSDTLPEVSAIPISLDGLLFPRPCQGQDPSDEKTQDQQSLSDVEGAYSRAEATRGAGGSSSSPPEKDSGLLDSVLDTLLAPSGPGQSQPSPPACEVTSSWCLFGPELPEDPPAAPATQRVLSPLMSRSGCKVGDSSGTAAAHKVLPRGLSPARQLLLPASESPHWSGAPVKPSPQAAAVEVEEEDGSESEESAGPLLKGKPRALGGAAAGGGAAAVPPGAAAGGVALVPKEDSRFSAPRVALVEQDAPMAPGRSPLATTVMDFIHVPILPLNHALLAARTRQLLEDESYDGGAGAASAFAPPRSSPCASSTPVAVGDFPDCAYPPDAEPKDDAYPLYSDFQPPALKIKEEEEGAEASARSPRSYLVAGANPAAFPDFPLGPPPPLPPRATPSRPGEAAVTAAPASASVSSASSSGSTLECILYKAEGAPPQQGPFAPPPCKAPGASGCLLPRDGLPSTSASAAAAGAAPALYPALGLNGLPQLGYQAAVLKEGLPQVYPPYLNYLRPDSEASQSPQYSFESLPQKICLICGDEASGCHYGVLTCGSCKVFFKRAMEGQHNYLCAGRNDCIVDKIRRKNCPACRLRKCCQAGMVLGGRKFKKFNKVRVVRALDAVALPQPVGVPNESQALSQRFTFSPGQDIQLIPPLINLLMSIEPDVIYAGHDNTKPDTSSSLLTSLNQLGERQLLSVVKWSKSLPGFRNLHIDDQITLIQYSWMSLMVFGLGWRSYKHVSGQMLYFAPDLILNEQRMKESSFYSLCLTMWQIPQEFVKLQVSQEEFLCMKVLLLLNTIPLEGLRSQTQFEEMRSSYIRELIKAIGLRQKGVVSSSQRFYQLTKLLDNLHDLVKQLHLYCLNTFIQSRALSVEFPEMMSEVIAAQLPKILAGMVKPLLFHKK
UniProt P07910: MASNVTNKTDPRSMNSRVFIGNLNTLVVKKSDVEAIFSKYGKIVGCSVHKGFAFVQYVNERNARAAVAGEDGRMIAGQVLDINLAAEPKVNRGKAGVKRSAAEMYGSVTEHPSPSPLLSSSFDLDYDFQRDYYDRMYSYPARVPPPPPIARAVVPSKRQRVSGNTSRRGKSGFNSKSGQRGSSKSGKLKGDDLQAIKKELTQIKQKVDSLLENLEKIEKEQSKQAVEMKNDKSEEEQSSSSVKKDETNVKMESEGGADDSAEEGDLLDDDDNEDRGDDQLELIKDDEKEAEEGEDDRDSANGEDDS
UniProt P10515, whole entry: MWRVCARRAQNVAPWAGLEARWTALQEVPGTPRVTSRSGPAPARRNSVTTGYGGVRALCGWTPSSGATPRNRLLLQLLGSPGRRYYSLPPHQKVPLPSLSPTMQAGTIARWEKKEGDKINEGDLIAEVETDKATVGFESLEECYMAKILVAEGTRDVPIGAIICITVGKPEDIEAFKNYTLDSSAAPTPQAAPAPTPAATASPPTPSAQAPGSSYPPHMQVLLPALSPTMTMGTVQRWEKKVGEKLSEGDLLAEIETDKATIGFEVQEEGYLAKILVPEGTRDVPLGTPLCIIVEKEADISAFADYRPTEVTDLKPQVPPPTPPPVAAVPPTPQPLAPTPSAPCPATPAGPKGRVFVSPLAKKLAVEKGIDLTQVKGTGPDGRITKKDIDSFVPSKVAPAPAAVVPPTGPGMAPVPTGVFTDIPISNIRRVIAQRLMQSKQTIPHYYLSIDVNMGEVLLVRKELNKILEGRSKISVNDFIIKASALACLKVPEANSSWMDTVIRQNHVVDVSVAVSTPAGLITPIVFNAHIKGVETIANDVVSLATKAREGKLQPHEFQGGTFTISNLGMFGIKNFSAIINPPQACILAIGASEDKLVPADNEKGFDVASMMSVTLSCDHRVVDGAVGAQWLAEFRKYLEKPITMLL
UniProt P02794, whole entry: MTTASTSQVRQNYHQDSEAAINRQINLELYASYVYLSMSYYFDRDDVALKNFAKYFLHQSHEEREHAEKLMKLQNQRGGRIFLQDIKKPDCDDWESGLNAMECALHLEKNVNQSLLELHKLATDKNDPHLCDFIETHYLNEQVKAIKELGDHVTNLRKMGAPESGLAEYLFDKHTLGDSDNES
UniProt P07225: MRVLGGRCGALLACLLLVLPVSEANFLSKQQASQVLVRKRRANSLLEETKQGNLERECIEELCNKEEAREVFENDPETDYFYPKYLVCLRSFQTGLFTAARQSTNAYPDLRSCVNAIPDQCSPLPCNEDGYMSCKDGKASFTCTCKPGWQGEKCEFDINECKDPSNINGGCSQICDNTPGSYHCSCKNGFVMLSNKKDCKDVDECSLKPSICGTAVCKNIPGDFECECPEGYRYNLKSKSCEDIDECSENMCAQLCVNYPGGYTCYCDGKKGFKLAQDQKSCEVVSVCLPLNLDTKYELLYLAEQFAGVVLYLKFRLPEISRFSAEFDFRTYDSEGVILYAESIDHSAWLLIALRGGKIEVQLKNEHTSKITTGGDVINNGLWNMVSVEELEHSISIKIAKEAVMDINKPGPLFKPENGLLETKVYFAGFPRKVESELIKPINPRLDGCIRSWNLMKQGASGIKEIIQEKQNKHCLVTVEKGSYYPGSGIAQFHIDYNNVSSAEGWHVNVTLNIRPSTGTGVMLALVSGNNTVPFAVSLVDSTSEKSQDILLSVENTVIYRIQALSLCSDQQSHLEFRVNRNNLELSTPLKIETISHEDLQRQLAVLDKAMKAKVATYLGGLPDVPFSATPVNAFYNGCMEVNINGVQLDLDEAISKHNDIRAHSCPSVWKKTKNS
UniProt P05114: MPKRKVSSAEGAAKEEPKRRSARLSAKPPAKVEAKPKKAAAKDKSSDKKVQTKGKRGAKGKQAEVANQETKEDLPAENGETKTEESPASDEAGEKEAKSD
UniProt P08134, whole entry: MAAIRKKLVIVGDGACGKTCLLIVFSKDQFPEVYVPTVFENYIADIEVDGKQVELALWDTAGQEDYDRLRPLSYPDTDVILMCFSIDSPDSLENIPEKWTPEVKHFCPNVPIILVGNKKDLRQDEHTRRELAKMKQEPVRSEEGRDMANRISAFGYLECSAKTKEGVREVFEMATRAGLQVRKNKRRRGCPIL
UniProt P04818: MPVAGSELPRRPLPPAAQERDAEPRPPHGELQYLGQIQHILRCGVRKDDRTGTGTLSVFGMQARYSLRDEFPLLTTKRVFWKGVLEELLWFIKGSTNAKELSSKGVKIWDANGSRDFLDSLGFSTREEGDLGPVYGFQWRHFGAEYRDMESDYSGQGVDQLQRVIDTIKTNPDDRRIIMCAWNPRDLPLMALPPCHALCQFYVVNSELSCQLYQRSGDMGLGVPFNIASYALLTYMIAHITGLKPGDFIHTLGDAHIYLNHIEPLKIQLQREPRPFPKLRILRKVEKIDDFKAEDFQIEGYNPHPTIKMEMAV
UniProt P06576, whole entry: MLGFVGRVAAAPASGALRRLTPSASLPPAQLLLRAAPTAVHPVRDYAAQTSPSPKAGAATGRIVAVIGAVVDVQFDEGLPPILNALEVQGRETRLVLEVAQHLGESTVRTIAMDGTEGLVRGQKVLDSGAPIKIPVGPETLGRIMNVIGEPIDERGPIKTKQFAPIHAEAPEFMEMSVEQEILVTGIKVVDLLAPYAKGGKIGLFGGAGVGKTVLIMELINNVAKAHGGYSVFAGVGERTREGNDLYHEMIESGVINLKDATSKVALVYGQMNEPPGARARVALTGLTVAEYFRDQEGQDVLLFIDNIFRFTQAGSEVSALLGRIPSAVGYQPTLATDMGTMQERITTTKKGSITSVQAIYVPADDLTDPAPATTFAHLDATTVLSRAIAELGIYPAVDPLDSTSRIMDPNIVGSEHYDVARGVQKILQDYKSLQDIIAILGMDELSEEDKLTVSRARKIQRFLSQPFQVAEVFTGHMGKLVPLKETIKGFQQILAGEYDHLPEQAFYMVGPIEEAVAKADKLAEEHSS
UniProt P09105: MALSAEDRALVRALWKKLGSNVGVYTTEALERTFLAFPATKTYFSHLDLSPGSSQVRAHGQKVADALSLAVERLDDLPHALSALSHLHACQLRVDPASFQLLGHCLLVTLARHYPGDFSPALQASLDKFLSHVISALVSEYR
UniProt P0DMU8: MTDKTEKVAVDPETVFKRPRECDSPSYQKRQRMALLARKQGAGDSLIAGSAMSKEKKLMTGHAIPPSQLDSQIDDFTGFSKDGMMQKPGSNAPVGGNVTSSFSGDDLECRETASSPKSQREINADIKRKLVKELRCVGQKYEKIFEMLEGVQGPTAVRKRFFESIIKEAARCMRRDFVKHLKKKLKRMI
UniProt P02100: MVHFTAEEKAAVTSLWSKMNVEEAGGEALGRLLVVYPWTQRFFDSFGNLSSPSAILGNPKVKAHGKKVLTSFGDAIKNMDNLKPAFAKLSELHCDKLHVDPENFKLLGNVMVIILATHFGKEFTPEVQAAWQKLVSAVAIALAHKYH
UniProt P04733: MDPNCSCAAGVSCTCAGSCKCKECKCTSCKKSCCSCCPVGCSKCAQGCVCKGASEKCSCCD
UniProt P11498: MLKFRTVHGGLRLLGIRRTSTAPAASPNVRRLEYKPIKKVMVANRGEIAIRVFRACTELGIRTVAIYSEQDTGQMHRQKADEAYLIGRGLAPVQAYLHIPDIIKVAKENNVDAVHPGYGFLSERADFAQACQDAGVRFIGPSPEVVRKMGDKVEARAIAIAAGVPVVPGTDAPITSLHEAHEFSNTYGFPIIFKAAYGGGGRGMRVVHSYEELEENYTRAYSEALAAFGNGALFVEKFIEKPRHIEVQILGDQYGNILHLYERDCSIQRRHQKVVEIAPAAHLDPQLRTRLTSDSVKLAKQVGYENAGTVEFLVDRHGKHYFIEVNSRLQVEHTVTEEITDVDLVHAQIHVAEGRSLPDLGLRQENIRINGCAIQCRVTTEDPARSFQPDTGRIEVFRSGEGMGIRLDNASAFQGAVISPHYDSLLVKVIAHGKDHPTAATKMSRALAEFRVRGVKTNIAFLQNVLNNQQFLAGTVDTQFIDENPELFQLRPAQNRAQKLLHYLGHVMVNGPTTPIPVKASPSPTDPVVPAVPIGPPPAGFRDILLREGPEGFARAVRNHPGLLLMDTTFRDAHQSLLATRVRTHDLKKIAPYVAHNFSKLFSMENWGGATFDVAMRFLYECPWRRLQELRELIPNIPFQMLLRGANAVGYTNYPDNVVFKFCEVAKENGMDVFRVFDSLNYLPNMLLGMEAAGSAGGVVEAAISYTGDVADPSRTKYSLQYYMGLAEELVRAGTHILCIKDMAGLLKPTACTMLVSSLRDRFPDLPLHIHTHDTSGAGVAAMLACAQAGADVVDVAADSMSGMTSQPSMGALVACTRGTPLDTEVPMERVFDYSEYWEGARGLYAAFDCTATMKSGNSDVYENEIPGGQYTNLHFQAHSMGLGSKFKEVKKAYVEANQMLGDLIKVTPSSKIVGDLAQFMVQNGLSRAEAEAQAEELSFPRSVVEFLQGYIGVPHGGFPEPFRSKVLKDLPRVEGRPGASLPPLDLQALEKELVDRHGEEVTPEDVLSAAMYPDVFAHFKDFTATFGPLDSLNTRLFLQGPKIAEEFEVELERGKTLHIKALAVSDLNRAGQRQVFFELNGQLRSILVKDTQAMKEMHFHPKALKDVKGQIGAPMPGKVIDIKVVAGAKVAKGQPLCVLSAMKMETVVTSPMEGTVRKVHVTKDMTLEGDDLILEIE
UniProt P13489: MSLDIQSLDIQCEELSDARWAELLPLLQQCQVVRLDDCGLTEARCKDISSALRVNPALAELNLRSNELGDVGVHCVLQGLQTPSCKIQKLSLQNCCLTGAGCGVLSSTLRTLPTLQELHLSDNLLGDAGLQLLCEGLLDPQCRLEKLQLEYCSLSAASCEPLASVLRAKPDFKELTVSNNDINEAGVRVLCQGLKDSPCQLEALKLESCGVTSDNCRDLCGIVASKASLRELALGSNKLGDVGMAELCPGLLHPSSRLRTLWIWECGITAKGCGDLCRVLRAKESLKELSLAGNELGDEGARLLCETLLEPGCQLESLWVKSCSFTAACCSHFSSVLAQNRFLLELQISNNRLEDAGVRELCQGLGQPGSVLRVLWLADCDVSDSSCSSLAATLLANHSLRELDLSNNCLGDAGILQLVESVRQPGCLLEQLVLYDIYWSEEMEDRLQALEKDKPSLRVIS

Compound: Cc1nc(Nc2ncc(C(=O)Nc3c(C)cccc3Cl)s2)cc(N2CCN(CCO)CC2)n1 [dasatinib]
Assay: log2 fold change of tryptic peptide abundance, ligand vs vehicle (limited proteolysis) (log2 ratio); higher = more trypsin-susceptible (destabilized)
Conditions: ligand concentration: 5 uM; sample: K562 cleared lysate

Row | Target | log2 fold change
1 | UniProt P0DJD1 (peptide sequence: YLASVQGSAPSPGKK, peptide start residue: 11) | 0.4
2 | TPM3 (peptide sequence: CSELEEELK, peptide start residue: 191) (UniProt P06753) | 0.53
3 | LTA4H (peptide sequence: WEDAIPLALK, peptide start residue: 548) (UniProt P09960) | -0.378
4 | UniProt P06401 (peptide sequence: KNCPACR, peptide start residue: 471) | -0.448
5 | HNRNPC (peptide sequence: LKGDDLQAIKK, peptide start residue: 188) (UniProt P07910) | 0.441
6 | DLAT (peptide sequence: KDIDSFVPSK, peptide start residue: 387) (UniProt P10515) | -0.303
7 | FTH1 (peptide sequence: KMGAPESGLAEYLFDK, peptide start residue: 158) (UniProt P02794) | -0.533
8 | PROS1 (peptide sequence: SFQTGLFTAAR, peptide start residue: 91) (UniProt P07225) | 0.609
9 | HMGN1 (peptide sequence: GKQAEVANQETK, peptide start residue: 60) (UniProt P05114) | 0.191
10 | LCP1 (peptide sequence: AACLPLPGYR, peptide start residue: 40) (UniProt P13796) | 0.148
11 | UniProt P08134 (peptide sequence: MKQEPVRSEEGR, peptide start residue: 134) | 0.185
12 | TYMS (peptide sequence: DAEPRPPHGELQYLGQIQHILR, peptide start residue: 21) (UniProt P04818) | -0.17
13 | UniProt P06576 (peptide sequence: VLDSGAPIKIPVGPETLGR, peptide start residue: 125) | -0.11
14 | HBQ1 (peptide sequence: VADALSLAVER, peptide start residue: 63) (UniProt P09105) | -0.0898
15 | ESRRA (peptide sequence: CLPGHKEEEDGEGAGPGEQGGGK, peptide start residue: 46) (UniProt P11474) | 0.531
16 | UniProt P0DMU8 (peptide sequence: ECDSPSYQK, peptide start residue: 21) | 0.0929
17 | HBE1 (peptide sequence: MVHFTAEEK, peptide start residue: 1) (UniProt P02100) | 0.255
18 | UniProt P0DMV8 (peptide sequence: AQIHDLVLVGGSTR, peptide start residue: 329) | 0.125
19 | UniProt P04733 (peptide sequence: CAQGCVCK, peptide start residue: 44) | 0.0674
20 | MRPL3 (peptide sequence: RPGAVATGDIGR, peptide start residue: 239) (UniProt P09001) | -0.31
21 | UniProt P0CJ79 (peptide sequence: CDVCGKDFNQKR, peptide start residue: 244) | -0.982
22 | PC (peptide sequence: SFQPDTGRIEVFR, peptide start residue: 386) (UniProt P11498) | -0.122
23 | C0HKE1 (peptide sequence: HLQLAIRNDEELNKLLGR, peptide start residue: 83) (UniProt P04908) | 0.248
24 | RNH1 (peptide sequence: LDDCGLTEARCKDISSALR, peptide start residue: 35) (UniProt P13489) | 0.257
25 | COL1A1 (peptide sequence: QGPSGASGER, peptide start residue: 985) (UniProt P02452) | 0.144
